Results on 1 substance are retold here after PMC10810282.

The chains behind the UniProt entries cited, without tags or fusion partners. Where a name states a change or a piece, a line headed by the entry shows the natural chain unless it says otherwise. A line that says so, or that is headed by a name, gives the form on record, which may keep a tag or linker.
UniProt P97931: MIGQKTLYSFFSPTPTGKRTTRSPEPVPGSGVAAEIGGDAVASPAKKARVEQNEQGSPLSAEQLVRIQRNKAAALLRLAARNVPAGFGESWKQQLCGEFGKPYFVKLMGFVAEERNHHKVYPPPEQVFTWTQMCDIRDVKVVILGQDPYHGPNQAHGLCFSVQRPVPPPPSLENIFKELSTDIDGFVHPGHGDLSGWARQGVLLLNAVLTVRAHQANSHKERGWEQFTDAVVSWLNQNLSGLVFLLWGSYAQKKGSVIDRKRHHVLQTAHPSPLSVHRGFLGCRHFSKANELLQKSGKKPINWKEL
mUNG2-CFP or mUNG2-YFP Helix-mut_1, expressed in U2OS cells (P97931, form named): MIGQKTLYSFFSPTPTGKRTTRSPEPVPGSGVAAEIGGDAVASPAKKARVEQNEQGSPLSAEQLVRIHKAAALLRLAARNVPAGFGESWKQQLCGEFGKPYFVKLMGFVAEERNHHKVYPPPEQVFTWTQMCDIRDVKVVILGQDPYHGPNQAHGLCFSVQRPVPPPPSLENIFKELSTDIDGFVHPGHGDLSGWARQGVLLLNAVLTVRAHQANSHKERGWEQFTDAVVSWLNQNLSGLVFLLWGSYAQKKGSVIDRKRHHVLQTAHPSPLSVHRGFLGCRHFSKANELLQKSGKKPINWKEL
UniProt P12004: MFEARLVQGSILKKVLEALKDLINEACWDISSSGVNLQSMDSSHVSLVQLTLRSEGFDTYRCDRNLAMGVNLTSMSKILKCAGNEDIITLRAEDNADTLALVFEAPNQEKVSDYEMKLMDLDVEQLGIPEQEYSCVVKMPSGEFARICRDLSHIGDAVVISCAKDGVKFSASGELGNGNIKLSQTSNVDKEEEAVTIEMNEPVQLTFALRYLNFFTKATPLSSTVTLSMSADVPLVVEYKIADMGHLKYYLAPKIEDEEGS

Assay [1] addresses mUNG2-CFP or mUNG2-YFP wild type, expressed in U2OS cells (mouse) (UniProt P97931). Nature of the assay: co-IP; polyclonal GFP antibody coupled to Protein A Dynabeads, nuclease (RNaseA + OmniCleave) treated whole cell extract of transfected U2OS cells expressing tagged UNG2 variants, 4°C overnight; blot for PCNA.
The target in assay [2] is mUNG2-CFP or mUNG2-YFP Helix-mut_1, expressed in U2OS cells (mouse) (UniProt P97931). The assay is described as above.

Results are given in words; binding and its absence hold for the method and conditions named. In cells and extracts the contact can be indirect. Some results given as binding are weak or reduced against the parent protein; the word gives no strength.

Consider “PCNA of U2OS cell extract (from UniProt P12004 1-261)”, for which the binding result in assay [1] and in assay [2] was “binds” throughout.
